Drawing on article PMC7015241, this text covers binding for one molecule.

These are yes or no findings as the source states them, for the method shown. In cells and extracts the contact can be indirect. Some binding calls cover weakened binding; strength is not graded here. Where a sequence is shown, tags or fusion partners need not be part of it.

The target in the test is T1, HA-tagged full-length myopalladin (MYPN) (not stated (human or mouse cDNA cloned)) (UniProt Q86TC9).
T1 sequence: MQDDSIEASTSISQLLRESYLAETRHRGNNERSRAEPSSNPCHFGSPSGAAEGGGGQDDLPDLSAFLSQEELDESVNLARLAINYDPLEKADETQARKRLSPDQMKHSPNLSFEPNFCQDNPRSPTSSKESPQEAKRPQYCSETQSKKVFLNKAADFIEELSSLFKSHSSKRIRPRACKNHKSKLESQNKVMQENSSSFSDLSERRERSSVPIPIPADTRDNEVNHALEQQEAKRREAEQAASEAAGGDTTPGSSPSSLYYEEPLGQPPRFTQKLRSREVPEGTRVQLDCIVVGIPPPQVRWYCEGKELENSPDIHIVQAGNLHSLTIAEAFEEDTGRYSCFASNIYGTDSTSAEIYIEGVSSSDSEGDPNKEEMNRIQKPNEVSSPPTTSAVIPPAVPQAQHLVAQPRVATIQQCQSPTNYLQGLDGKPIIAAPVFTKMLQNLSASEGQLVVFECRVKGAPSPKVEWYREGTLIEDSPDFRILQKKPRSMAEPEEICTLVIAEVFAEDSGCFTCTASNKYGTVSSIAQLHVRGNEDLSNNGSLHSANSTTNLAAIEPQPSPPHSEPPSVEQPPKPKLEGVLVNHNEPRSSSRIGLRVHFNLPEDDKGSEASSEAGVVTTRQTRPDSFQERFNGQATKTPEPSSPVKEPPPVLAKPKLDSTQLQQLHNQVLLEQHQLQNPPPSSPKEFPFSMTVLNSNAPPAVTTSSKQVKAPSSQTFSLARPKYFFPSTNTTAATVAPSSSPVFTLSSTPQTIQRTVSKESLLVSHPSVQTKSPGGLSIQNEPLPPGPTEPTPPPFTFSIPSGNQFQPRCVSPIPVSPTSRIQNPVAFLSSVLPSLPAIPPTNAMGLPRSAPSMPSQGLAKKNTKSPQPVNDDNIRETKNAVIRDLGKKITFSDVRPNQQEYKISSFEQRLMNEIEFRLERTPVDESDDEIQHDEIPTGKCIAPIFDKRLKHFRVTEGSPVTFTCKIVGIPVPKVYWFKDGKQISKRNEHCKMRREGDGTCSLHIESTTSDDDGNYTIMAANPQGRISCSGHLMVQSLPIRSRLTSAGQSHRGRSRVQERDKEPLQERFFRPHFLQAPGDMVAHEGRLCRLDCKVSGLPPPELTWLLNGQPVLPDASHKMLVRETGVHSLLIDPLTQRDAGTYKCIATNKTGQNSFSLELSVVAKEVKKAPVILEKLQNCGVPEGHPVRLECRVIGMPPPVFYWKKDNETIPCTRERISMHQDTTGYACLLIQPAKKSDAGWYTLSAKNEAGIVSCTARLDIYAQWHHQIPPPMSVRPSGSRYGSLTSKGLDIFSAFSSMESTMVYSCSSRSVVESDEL
As to the kind of experiment: co-IP; HEK293 cells transfected with pXJ40-HA-MYPN FL and/or pXJ40-FLAG-MRTF-A; lysate in IP buffer (20 mM Tris-HCl pH 7.5, 150 mM NaCl, 1% Triton X-100) precipitated with HA antibody on Protein G Dynabeads; western blot with FLAG antibody. (In general: In western blotting, separated proteins are transferred to a membrane and probed.)

B1: FLAG-tagged myocardin-related transcription factor A (MRTF-A) (protein, UniProt Q969V6 1-931)
chain: MPPLKSPAAFHEQRRSLERARTEDYLKRKIRSRPERSELVRMHILEETSAEPSLQAKQLKLKRARLADDLNEKIAQRPGPMELVEKNILPVESSLKEAIIVGQVNYPKVADSSSFDEDSSDALSPEQPASHESQGSVPSPLEARVSEPLLSATSASPTQVVSQLPMGRDSREMLFLAEQPPLPPPPLLPPSLTNGTTIPTAKSTPTLIKQSQPKSASEKSQRSKKAKELKPKVKKLKYHQYIPPDQKQDRGAPPMDSSYAKILQQQQLFLQLQILNQQQQQHHNYQAILPAPPKSAGEALGSSGTPPVRSLSTTNSSSSSGAPGPCGLARQNSTSLTGKPGALPANLDDMKVAELKQELKLRSLPVSGTKTELIERLRAYQDQISPVPGAPKAPAATSILHKAGEVVVAFPAARLSTGPALVAAGLAPAEVVVATVASSGVVKFGSTGSTPPVSPTPSERSLLSTGDENSTPGDTFGEMVTSPLTQLTLQASPLQILVKEEGPRAGSCCLSPGGRAELEGRDKDQMLQEKDKQIEALTRMLRQKQQLVERLKLQLEQEKRAQQPAPAPAPLGTPVKQENSFSSCQLSQQPLGPAHPFNPSLAAPATNHIDPCAVAPGPPSVVVKQEALQPEPEPVPAPQLLLGPQGPSLIKGVAPPTLITDSTGTHLVLTVTNKNADSPGLSSGSPQQPSSQPGSPAPAPSAQMDLEHPLQPLFGTPTSLLKKEPPGYEEAMSQQPKQQENGSSSQQMDDLFDILIQSGEISADFKEPPSLPGKEKPSPKTVCGSPLAAQPSPSAELPQAAPPPPGSPSLPGRLEDFLESSTGLPLLTSGHDGPEPLSLIDDLHSQMLSSTAILDHPPSPMDTSELHFVPEPSSTMGLDLADGHLDSMDWLELSSGGPVLSLAPLSTTAPSLFSTDFLDGHDLQLHWDSCL
For the molecule B1, the binding result is given as “binds”.
